The list does not hold the whole screen: it is rich in T/C values a quarter to a half above the control, in often repeated tests (any T/C) and in doses without a T/C. Other doses and runs of a compound stand elsewhere. T/C: endpoint of the treated group in % of that of the vehicle group. Some entries give survivors of the animals treated and no T/C: the source holds a T/C of zero for them, seemingly a mark for toxic or unscored doses. Some survivor counts are full or nearly so, which does not show that the dose was tolerated: the source hardly ever lists a survival T/C far under the control, and the zero likely stands for such cases as well. Counts of survivors are from the toxicity check (mostly the fifth day) where no day follows; animals may have died later. Schedule codes are those of the source, taken here to give the interval after Q, in days (D) or hours (H), and the number of doses after X. Some schedule codes hold Z or #, which are not explained here. Some doses were run more than once; the values are given in rising order. Where survival is the endpoint, this PubChem deposit counts one and a half times the control or more as active, and values a quarter to a half above the control carry no call in these data; other NCI protocols may use other cut-offs. Some T/C values carry the count of animals alive at the toxicity check (mostly the fifth day); without a count, all were alive then.
Test system: L1210 leukemia ip in BDF1 mice, survival T/C
Experiment: NCI In Vivo Anticancer Drug Screen. Data for tumor model L1210 Leukemia (intraperitoneal) in B6D2F1 (BDF1) mice
Settings: higher T/C = longer survival
[1] = T/C endpoint: mean survival time, dose: 135.0 mg/kg/injection, schedule: Q01DX Z (ip), vehicle: saline
[2] = T/C endpoint: mean survival time, dose: 200.0 mg/kg/injection, schedule: Q01DX009 (ip), vehicle: Klucel (hydroxypropylcellulose) (HPC)

## CN(N=O)C(=O)NC(C=O)C(O)C(O)C(O)CO (configuration not stated)
T/C endpoint: mean survival time, dose: 9.0 mg/kg/injection, schedule: Q#A X025 (ip), vehicle: water
  T/C: 125 % of control
T/C endpoint: mean survival time, dose: 13.5 mg/kg/injection, schedule: Q#A X025 (ip), vehicle: water
  T/C: 130 % of control
T/C endpoint: mean survival time, dose: 20.0 mg/kg/injection, schedule: Q#A X Z (ip), vehicle: saline
  T/C: 140 and 146 % of control
T/C endpoint: mean survival time, dose: 25.0 mg/kg/injection, schedule: Q01DX Z (ip), vehicle: saline
  T/C: 103, 107, 117, 125 % of control
T/C endpoint: mean survival time, dose: 25.0 mg/kg/injection, schedule: Q01DX Z (ip), vehicle: water
  T/C: 128 % of control
T/C endpoint: mean survival time, dose: 27.0 mg/kg/injection, schedule: Q01DX013 (ip), vehicle: water
  T/C: 136 % of control
T/C endpoint: mean survival time, dose: 40.0 mg/kg/injection, schedule: Q01DX013 (ip), vehicle: water
  T/C: 141 % of control
T/C endpoint: mean survival time, dose: 40.0 mg/kg/injection, schedule: Q01DX Z (ip), vehicle: saline
  T/C: 135 and 147 % of control
T/C endpoint: mean survival time, dose: 45.0 mg/kg/injection, schedule: Q#A X Z (ip), vehicle: saline
  survivor count: 0 of 6
T/C endpoint: mean survival time, dose: 49.5 mg/kg/injection, schedule: Q01DX Z (ip), vehicle: water
  T/C: 132 % of control
T/C endpoint: mean survival time, dose: 49.6 mg/kg/injection, schedule: Q01DX Z (ip), vehicle: water
  T/C: 144 % of control [6 of 7 alive]
T/C endpoint: mean survival time, dose: 50.0 mg/kg/injection, schedule: Q01DX Z (ip), vehicle: saline
  T/C: 94, 115, 142, 152 % of control
T/C endpoint: mean survival time, dose: 50.0 mg/kg/injection, schedule: Q01DX Z (ip), vehicle: water
  T/C: 147 % of control
T/C endpoint: mean survival time, dose: 54.0 mg/kg/injection, schedule: Q03DX003 (ip), vehicle: saline
  T/C: 125 % of control
T/C endpoint: mean survival time, dose: 54.0 mg/kg/injection, schedule: Q07DX001 (ip), vehicle: saline
  T/C: 125 % of control
T/C endpoint: mean survival time, dose: 60.0 mg/kg/injection, schedule: Q01DX Z (ip), vehicle: saline
  T/C: 138 and 148 % of control
T/C endpoint: mean survival time, dose: 60.0 mg/kg/injection, schedule: Q01DX Z (sc), vehicle: saline
  T/C: 105, 111, 113, 120 % of control
T/C endpoint: mean survival time, dose: 67.5 mg/kg/injection, schedule: Q#A X Z (ip), vehicle: saline
  survivor count: 0 of 6
T/C endpoint: mean survival time, dose: 78.0 mg/kg/injection, schedule: Q03DX Z (ip), vehicle: saline
  T/C: 130 % of control
T/C endpoint: mean survival time, dose: 90.0 mg/kg/injection, schedule: Q01DX Z (ip), vehicle: saline
  T/C: 137 % of control
T/C endpoint: mean survival time, dose: 90.0 mg/kg/injection, schedule: Q01DX Z (sc), vehicle: saline
  T/C: 112, 113, 118, 129 % of control
T/C endpoint: mean survival time, dose: 99.6 mg/kg/injection, schedule: Q01DX Z (ip), vehicle: water
  T/C: 133 % of control
T/C endpoint: mean survival time, dose: 100.0 mg/kg/injection, schedule: Q01DX Z (ip), vehicle: water
  T/C: 128 % of control
T/C endpoint: mean survival time, dose: 120.0 mg/kg/injection, schedule: Q03DX004 (ip), vehicle: saline
  T/C: 147 % of control
T/C endpoint: mean survival time, dose: 120.0 mg/kg/injection, schedule: Q03DX005 (ip), vehicle: saline
  T/C: 137 % of control
T/C endpoint: mean survival time, dose: 120.0 mg/kg/injection, schedule: Q03DX 5 (iv), vehicle: saline
  T/C: 132 % of control
T/C endpoint: mean survival time, dose: 120.0 mg/kg/injection, schedule: Q03DX Z (ip), vehicle: saline
  T/C: 140 % of control
T/C endpoint: mean survival time, dose: 120.0 mg/kg/injection, schedule: Q07DX001 (ip), vehicle: saline
  T/C: 131 % of control
[1]
  T/C: 94, 119, 137 % of control
  survivor count: 0 of 6
T/C endpoint: mean survival time, dose: 180.0 mg/kg/injection, schedule: Q01DX001 (ip), vehicle: saline
  T/C: 135 % of control
T/C endpoint: mean survival time, dose: 180.0 mg/kg/injection, schedule: Q03DX004 (ip), vehicle: saline
  T/C: 147 % of control
T/C endpoint: mean survival time, dose: 180.0 mg/kg/injection, schedule: Q03DX 5 (iv), vehicle: saline
  T/C: 125 % of control
T/C endpoint: mean survival time, dose: 200.0 mg/kg/injection, schedule: Q01DX009 (ip), vehicle: saline
  T/C: 136 % of control
T/C endpoint: mean survival time, dose: 200.0 mg/kg/injection, schedule: Q01DX Z (ip), vehicle: saline
  survivor count: 5 of 6 and 6 of 6
T/C endpoint: mean survival time, dose: 200.0 mg/kg/injection, schedule: Q01DX Z (ip), vehicle: water
  survivor count: 3 of 7
T/C endpoint: mean survival time, dose: 202.0 mg/kg/injection, schedule: Q01DX Z (iv), vehicle: saline
  survivor count: 4 of 6
T/C endpoint: mean survival time, dose: 202.0 mg/kg/injection, schedule: Q01DX Z (sc), vehicle: saline
  survivor count: 4 of 6
T/C endpoint: mean survival time, dose: 270.0 mg/kg/injection, schedule: Q01DX001 (ip), vehicle: saline
  T/C: 125 and 126 % of control
T/C endpoint: mean survival time, dose: 270.0 mg/kg/injection, schedule: Q03DX Z (ip), vehicle: saline
  survivor count: 0 of 6
T/C endpoint: mean survival time, dose: 280.0 mg/kg/injection, schedule: Q07DX Z (ip), vehicle: saline
  T/C: 135 % of control
T/C endpoint: mean survival time, dose: 300.0 mg/kg/injection, schedule: Q01DX Z (ip), vehicle: saline
  survivor count: 3 of 6
T/C endpoint: mean survival time, dose: 360.0 mg/kg/injection, schedule: Q01DX Z (oral), vehicle: saline
  survivor count: 3 of 6
T/C endpoint: mean survival time, dose: 400.0 mg/kg/injection, schedule: Q01DX Z (im), vehicle: saline
  survivor count: 2 of 6
T/C endpoint: mean survival time, dose: 405.0 mg/kg/injection, schedule: Q01DX 1 (iv), vehicle: saline
  survivor count: 2 of 6
T/C endpoint: mean survival time, dose: 405.0 mg/kg/injection, schedule: Q03DX Z (ip), vehicle: saline
  survivor count: 0 of 6
T/C endpoint: mean survival time, dose: 450.0 mg/kg/injection, schedule: Q01DX Z (ip), vehicle: saline
  survivor count: 0 of 6
T/C endpoint: mean survival time, dose: 610.0 mg/kg/injection, schedule: Q01DX001 (ip), vehicle: saline
  survivor count: 1 of 6
T/C endpoint: mean survival time, dose: 630.0 mg/kg/injection, schedule: Q07DX Z (ip), vehicle: saline
  survivor count: 0 of 6
T/C endpoint: mean survival time, dose: 800.0 mg/kg/injection, schedule: Q01DX Z (im), vehicle: saline
  survivor count: 1 of 6
T/C endpoint: mean survival time, dose: 915.0 mg/kg/injection, schedule: Q01DX001 (ip), vehicle: saline
  survivor count: 0 of 6
T/C endpoint: mean survival time, dose: 945.0 mg/kg/injection, schedule: Q07DX Z (ip), vehicle: saline
  survivor count: 1 of 6
T/C endpoint: median survival time, dose: 100.0 mg/kg/injection, schedule: Q01DX017 (ip), vehicle: water
  T/C: 133 % of control
T/C endpoint: median survival time, dose: 200.0 mg/kg/injection, schedule: Q01DX017 (ip), vehicle: water
  survivor count: 7 of 8

## O=NN(CCCl)C(=O)Nc1ccc(S(=O)(=O)c2ccc(NC(=O)N(CCCl)N=O)cc2)cc1
T/C endpoint: mean survival time, dose: 1.5 mg/kg/injection, schedule: Q01DX001 (ip), vehicle: carboxymethylcellulose (CMC)
  T/C: 126 % of control
T/C endpoint: mean survival time, dose: 3.0 mg/kg/injection, schedule: Q01DX001 (ip), vehicle: carboxymethylcellulose (CMC)
  T/C: 131 % of control
T/C endpoint: mean survival time, dose: 6.0 mg/kg/injection, schedule: Q01DX001 (ip), vehicle: carboxymethylcellulose (CMC)
  T/C: 127 % of control
T/C endpoint: mean survival time, dose: 15.0 mg/kg/injection, schedule: Q01DX001 (ip), vehicle: carboxymethylcellulose (CMC)
  T/C: 141 % of control
T/C endpoint: mean survival time, dose: 30.0 mg/kg/injection, schedule: Q01DX001 (ip), vehicle: carboxymethylcellulose (CMC)
  T/C: 138 % of control
T/C endpoint: mean survival time, dose: 60.0 mg/kg/injection, schedule: Q01DX001 (ip), vehicle: carboxymethylcellulose (CMC)
  T/C: 146 % of control
T/C endpoint: mean survival time, dose: 120.0 mg/kg/injection, schedule: Q01DX001 (ip), vehicle: carboxymethylcellulose (CMC)
  T/C: 142 % of control
T/C endpoint: mean survival time, dose: 177.0 mg/kg/injection, schedule: Q01DX009 (ip), vehicle: carboxymethylcellulose (CMC)
  T/C: 148 % of control
T/C endpoint: mean survival time, dose: 266.0 mg/kg/injection, schedule: Q01DX001 (ip), vehicle: carboxymethylcellulose (CMC)
  T/C: 143 % of control
T/C endpoint: mean survival time, dose: 400.0 mg/kg/injection, schedule: Q01DX001 (ip), vehicle: carboxymethylcellulose (CMC)
  T/C: 139 and 146 % of control

## O=C(O)C(Cc1cnc[nH]1)Nc1nc(NC(Cc2cnc[nH]2)C(=O)O)[nH]c(=O)n1 (configuration not stated)
T/C endpoint: mean survival time, dose: 50.0 mg/kg/injection, schedule: Q01DX009 (ip), vehicle: Klucel (hydroxypropylcellulose) (HPC)
  survivor count: 3 of 3
T/C endpoint: mean survival time, dose: 100.0 mg/kg/injection, schedule: Q01DX009 (ip), vehicle: Klucel (hydroxypropylcellulose) (HPC)
  survivor count: 3 of 3
[2]
  survivor count: 3 of 3

## O=C(Nc1ccc(C(=O)O)cc1)Nc1ccccc1Cl
T/C endpoint: mean survival time, dose: 200.0 mg/kg/injection, schedule: Q04DX002 (ip), vehicle: saline + alcohol
  survivor count: 3 of 3
T/C endpoint: mean survival time, dose: 400.0 mg/kg/injection, schedule: Q04DX002 (ip), vehicle: saline + alcohol
  survivor count: 2 of 3

## c1ccc(-n2cc(-c3nc(N4CC4)nc(N4CC4)n3)c3ccccc32)cc1
[2]
  survivor count: 4 of 6
T/C endpoint: mean survival time, dose: 400.0 mg/kg/injection, schedule: Q04DX003 (ip), vehicle: Klucel (hydroxypropylcellulose) (HPC)
  survivor count: 6 of 6

## Cc1ccc(C(=O)OCC(=O)c2ccc(-c3ccccc3)cc2)cc1
T/C endpoint: mean survival time, dose: 400.0 mg/kg/injection, schedule: Q01DX001 (ip), vehicle: other
  survivor count: 6 of 6
